Measurements: patent US20060053496A1
Results are given in words; binding and its absence hold for the method and conditions named. In cells and extracts the contact can be indirect. Some results given as binding are weak or reduced against the parent protein; the word gives no strength. Sequences can lack the tags named with a protein.

Amino acid sequences for entries named in this document (tags omitted).
UniProt Q99558: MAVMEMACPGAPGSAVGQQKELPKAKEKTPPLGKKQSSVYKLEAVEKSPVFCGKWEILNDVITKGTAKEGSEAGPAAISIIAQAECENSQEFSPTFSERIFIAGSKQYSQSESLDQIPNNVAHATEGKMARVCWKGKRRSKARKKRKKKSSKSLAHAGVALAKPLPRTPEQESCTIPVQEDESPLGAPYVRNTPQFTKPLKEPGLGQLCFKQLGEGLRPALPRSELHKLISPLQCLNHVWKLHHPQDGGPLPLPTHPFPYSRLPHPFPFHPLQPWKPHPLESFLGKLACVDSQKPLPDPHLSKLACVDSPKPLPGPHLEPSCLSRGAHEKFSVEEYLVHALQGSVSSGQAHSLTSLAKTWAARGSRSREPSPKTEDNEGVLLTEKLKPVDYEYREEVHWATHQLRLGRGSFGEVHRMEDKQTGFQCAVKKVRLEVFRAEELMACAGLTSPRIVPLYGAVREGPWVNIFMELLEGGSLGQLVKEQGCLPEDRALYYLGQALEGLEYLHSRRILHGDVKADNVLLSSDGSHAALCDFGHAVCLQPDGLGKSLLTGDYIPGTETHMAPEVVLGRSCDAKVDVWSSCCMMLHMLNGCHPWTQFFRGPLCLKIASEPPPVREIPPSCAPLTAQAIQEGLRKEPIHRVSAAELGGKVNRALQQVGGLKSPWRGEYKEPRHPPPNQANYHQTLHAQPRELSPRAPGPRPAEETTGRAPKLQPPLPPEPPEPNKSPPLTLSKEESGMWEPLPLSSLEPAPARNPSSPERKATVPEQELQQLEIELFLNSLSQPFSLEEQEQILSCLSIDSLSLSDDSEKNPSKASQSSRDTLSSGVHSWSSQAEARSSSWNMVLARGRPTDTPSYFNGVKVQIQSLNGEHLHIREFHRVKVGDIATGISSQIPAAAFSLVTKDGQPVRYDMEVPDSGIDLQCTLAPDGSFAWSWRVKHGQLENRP
UniProt Q96P20: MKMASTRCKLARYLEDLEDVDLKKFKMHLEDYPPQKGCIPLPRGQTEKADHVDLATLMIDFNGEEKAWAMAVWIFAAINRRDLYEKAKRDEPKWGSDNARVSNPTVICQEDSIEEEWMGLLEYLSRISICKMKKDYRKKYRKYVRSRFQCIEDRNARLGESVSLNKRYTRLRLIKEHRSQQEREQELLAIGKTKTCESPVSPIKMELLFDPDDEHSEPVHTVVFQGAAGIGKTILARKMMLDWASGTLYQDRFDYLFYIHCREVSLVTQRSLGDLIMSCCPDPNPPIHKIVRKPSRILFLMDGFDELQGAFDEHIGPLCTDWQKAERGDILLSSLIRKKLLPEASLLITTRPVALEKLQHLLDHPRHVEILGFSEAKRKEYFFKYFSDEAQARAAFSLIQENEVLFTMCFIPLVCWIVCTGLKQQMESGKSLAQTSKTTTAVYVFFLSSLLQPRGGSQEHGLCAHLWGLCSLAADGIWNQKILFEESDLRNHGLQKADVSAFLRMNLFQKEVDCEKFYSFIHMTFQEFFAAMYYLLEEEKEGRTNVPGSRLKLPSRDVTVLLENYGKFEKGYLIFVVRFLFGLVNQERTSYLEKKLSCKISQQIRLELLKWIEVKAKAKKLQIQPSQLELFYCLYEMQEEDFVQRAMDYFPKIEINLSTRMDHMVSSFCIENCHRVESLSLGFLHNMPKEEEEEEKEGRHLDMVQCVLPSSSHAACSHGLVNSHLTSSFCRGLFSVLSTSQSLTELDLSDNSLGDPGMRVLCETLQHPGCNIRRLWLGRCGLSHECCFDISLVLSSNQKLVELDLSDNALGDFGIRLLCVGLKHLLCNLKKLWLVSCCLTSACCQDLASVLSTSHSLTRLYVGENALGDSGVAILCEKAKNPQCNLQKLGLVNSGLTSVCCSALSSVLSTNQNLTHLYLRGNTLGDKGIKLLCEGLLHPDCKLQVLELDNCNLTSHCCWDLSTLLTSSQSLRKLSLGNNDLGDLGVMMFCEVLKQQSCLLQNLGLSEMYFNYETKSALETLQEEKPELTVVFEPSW

Assays:
NF-κB Inducing Kinase [1] = molecular target: NF-κB Inducing Kinase (UniProt Q99558); assay: summary sentence of Example 2 (co-immunoprecipitation)
NF-κB Inducing Kinase [2] = molecular target: NF-κB Inducing Kinase (UniProt Q99558); assay: co-immunoprecipitation from transfected 293T cells (anti-FLAG M2 IP, anti-NIK H-248 western blot)
[3] = molecular target: FLAG-tagged CIAS1 (human) (UniProt Q96P20); assay: summary sentence of Example 2 (co-immunoprecipitation)
[4] = molecular target: FLAG-tagged CIAS1 (human) (UniProt Q96P20); assay: co-immunoprecipitation from transfected 293T cells (anti-FLAG IP of CIAS1, anti-HA western blot)

B1: FLAG-tagged Monarch-1 (protein, not shown: small tags and cut ends)
chain: MLRTAGRDGLCRLSTYLEELEAVELKKFKLYLGTATELGEGKIPWGSMEKAGPLEMAQLLITHFGPEEAWRLALSTFERINRKDLWERGQREDLVRDTPPGGPSSLGNQSTCLLEVSLVTPRKDPQETYRDYVRRKFRLMEDRNARLGECVNLSHRYTRLLLVKEHSNPMQVQQQLLDTGRGHARTVGHQASPIKIETLFEPDEERPEPPRTVVMQGAAGIGKSMLAHKVMLDWADGKLFQGRFDYLFYINCREMNQSATECSMQDLIFSCWPEPSAPLQELIRVPERLLFIIDGFDELKPSFHDPQGPWCLCWEEKRPTELLLNSLIRKKLLPELSLLITTRPTALEKLHRLLEHPRHVEILGFSEAERKEYFYKYFHNAEQAGQVFNYVRDNEPLFTMCFVPLVCWVVCTCLQQQLEGGGLLRQTSRTTTAVYMLYLLSLMQPKPGAPRLQPPPNQRGLCSLAADGLWNQKILFEEQDLRKHGLDGEDVSAFLNMNIFQKDINCERYYSFIHLSFQEFFAAMYYILDEGEGGAGPDQDVTRLLTEYAFSERSFLALTSRFLFGLLNEETRSHLEKSLCWKVSPHIKMDLLQWIQSKAQSDGSTLQQGSLEFFSCLYEIQEEEFIQQALSHFQVIVVSNIASKMEHMVSSFCLKRCRSAQVLHLYGATYSADGEDRARCSAGAHTLLVQLRPERTVLLDAYSEHLAAALCTNPNLIELSLYRNALGSRGVKLLCQGLRHPNCKLQNLRLKRCRISSSACEDLSAALIANKNLTRMDLSGNGVGFPGMMLLCEGLRHPQCRLQMIQLRKCQLESGACQEMASVLGTNPHLVELDLTGNALEDLGLRLLCQGLRHPVCRLRTLWLKICRLTAAACDELASTLSVNQSLRELDLSLNELGDLGVLLLCEGLRHPTCKLQTLRLGICRLGSAACEGLSVVLQANHNLRELDLSFNDLGDWGLWLLAEGLQHPACRLQKLWLDSCGLTAKACENLYFTLGINQTLTDLYLTNNALGDTGVRLLCKRLSHPGCKLRVLWLFGMDLNKMTHSRLAALRVTKPYLDIGC
- binding (NF-κB Inducing Kinase [1]): binds
- binding (NF-κB Inducing Kinase [2]): binds

B2: HA-tagged Monarch-1 (protein, not shown: small tags and cut ends)
chain: MLRTAGRDGLCRLSTYLEELEAVELKKFKLYLGTATELGEGKIPWGSMEKAGPLEMAQLLITHFGPEEAWRLALSTFERINRKDLWERGQREDLVRDTPPGGPSSLGNQSTCLLEVSLVTPRKDPQETYRDYVRRKFRLMEDRNARLGECVNLSHRYTRLLLVKEHSNPMQVQQQLLDTGRGHARTVGHQASPIKIETLFEPDEERPEPPRTVVMQGAAGIGKSMLAHKVMLDWADGKLFQGRFDYLFYINCREMNQSATECSMQDLIFSCWPEPSAPLQELIRVPERLLFIIDGFDELKPSFHDPQGPWCLCWEEKRPTELLLNSLIRKKLLPELSLLITTRPTALEKLHRLLEHPRHVEILGFSEAERKEYFYKYFHNAEQAGQVFNYVRDNEPLFTMCFVPLVCWVVCTCLQQQLEGGGLLRQTSRTTTAVYMLYLLSLMQPKPGAPRLQPPPNQRGLCSLAADGLWNQKILFEEQDLRKHGLDGEDVSAFLNMNIFQKDINCERYYSFIHLSFQEFFAAMYYILDEGEGGAGPDQDVTRLLTEYAFSERSFLALTSRFLFGLLNEETRSHLEKSLCWKVSPHIKMDLLQWIQSKAQSDGSTLQQGSLEFFSCLYEIQEEEFIQQALSHFQVIVVSNIASKMEHMVSSFCLKRCRSAQVLHLYGATYSADGEDRARCSAGAHTLLVQLRPERTVLLDAYSEHLAAALCTNPNLIELSLYRNALGSRGVKLLCQGLRHPNCKLQNLRLKRCRISSSACEDLSAALIANKNLTRMDLSGNGVGFPGMMLLCEGLRHPQCRLQMIQLRKCQLESGACQEMASVLGTNPHLVELDLTGNALEDLGLRLLCQGLRHPVCRLRTLWLKICRLTAAACDELASTLSVNQSLRELDLSLNELGDLGVLLLCEGLRHPTCKLQTLRLGICRLGSAACEGLSVVLQANHNLRELDLSFNDLGDWGLWLLAEGLQHPACRLQKLWLDSCGLTAKACENLYFTLGINQTLTDLYLTNNALGDTGVRLLCKRLSHPGCKLRVLWLFGMDLNKMTHSRLAALRVTKPYLDIGC
- binding [3]: binds
- binding [4]: binds
